This is an account of results in paper doi:10.1101/2020.05.24.113076.

The chains behind the UniProt entries cited, without tags or fusion partners.
UniProt Q14289, whole entry: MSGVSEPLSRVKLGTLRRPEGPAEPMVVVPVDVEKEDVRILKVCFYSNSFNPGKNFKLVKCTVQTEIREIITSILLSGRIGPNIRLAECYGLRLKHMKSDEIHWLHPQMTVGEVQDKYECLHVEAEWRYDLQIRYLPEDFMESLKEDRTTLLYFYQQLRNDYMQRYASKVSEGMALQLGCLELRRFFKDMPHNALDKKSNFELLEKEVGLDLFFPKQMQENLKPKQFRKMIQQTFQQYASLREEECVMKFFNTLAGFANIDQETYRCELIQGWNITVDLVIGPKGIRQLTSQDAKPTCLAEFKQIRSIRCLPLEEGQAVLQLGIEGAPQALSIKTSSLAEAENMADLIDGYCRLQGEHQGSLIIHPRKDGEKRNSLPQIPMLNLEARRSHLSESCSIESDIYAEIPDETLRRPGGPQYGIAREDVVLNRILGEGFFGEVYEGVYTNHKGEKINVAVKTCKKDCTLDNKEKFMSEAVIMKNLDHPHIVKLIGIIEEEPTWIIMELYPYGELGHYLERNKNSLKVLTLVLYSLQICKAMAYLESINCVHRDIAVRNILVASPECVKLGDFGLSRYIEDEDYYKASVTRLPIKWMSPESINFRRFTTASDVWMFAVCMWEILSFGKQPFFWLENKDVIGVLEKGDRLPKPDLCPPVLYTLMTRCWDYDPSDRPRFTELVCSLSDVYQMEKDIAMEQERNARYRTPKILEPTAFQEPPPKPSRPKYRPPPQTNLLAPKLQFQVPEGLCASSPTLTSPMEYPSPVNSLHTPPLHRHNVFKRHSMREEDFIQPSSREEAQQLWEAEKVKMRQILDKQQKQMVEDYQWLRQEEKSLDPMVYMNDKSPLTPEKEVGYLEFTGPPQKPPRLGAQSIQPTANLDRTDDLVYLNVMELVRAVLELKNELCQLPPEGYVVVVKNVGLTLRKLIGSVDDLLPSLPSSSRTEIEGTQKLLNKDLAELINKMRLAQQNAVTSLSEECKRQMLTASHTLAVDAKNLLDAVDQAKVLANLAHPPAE

Results are given in words; binding and its absence hold for the method and conditions named. In cells and extracts the contact can be indirect. Binding can be weak; no strength is given. For some of these results: Where a sequence is shown, tags or fusion partners need not be part of it.

Assay in all cases: co-IP
In one assay the target is Myc-tagged JNK2 (UniProt P45984).
For assay [1], the target named is Myc-tagged PYK2 (protein-tyrosine kinase 2-beta) (UniProt Q14289).
The target of another assay is T1, Myc-tagged ARK5 (UniProt O60285).
T1 sequence: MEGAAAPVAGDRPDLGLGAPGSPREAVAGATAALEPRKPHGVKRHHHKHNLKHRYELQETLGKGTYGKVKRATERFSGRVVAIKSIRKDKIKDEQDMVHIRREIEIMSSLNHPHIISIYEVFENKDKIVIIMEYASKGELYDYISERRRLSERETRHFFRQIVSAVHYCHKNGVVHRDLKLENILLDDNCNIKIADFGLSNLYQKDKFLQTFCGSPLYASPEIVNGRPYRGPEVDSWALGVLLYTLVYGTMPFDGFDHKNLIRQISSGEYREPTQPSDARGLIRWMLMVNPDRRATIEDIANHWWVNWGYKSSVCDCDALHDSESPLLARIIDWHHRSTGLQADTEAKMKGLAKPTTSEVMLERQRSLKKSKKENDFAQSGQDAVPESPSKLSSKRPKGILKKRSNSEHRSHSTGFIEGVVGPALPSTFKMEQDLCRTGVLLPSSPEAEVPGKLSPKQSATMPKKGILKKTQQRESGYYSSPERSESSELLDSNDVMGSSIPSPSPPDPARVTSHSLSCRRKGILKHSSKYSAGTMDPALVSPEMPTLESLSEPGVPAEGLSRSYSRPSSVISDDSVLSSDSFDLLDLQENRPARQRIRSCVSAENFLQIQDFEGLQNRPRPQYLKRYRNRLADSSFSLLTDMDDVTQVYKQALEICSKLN

Another assay has as its target T2, Myc-tagged HIPK4 (UniProt Q8NE63).
T2 sequence: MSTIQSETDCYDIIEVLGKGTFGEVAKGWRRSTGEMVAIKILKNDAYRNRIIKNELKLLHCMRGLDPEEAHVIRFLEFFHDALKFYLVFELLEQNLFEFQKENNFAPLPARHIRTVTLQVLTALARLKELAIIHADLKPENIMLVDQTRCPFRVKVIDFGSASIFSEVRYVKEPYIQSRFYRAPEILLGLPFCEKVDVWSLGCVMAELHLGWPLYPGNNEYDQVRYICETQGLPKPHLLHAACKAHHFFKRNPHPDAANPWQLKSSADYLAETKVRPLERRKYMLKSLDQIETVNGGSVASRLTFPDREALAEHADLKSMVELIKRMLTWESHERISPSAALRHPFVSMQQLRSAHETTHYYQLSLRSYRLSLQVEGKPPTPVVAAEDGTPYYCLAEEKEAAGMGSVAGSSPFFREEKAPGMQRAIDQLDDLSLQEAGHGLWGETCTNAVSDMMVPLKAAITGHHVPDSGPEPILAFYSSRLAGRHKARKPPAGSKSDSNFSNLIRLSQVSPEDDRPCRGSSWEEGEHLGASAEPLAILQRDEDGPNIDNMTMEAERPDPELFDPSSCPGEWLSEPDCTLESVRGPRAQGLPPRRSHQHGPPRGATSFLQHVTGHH

In the case of “HA-tagged IRF5 (Interferon regulatory factor 5) (from UniProt Q13568-2)”, the binding result is “binds weakly” with Myc-tagged JNK2, “binds” in assay [1], “binds weakly” with Myc-tagged ARK5 and “binds weakly” with Myc-tagged HIPK4.
